Assay results reported in patent US20250223353A1.
Results are given in words; binding and its absence hold for the method and conditions named. Binding calls can cover weak binding; strength is not graded here.

By UniProt entry, the sequences of proteins in these tests, tags left out. Where a name states a change or a piece, a line headed by the entry shows the natural chain unless it says otherwise.
UniProt Q6DKI7: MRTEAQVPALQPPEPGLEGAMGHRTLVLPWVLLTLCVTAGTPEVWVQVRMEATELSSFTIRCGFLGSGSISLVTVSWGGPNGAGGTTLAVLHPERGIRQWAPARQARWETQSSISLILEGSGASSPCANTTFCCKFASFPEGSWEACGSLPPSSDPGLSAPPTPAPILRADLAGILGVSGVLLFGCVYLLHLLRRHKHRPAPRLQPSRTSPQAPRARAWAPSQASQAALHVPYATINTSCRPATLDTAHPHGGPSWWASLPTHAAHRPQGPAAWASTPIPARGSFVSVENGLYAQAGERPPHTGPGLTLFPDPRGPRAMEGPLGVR

Target: human PVRIG on the cell surface (human) (UniProt Q6DKI7)
Test: flow cytometry on CHO-huPVRIG cells

binding: binds
B1: ADI-56249-G1LALA (antibody, human IgG1, kappa, L234A L235A, V domains shown)
VH: QVQLVQSGAEVKKPGSSVKVSCKASGGTFSTFAISWVRQAPGQGLEWMGDIIPIFGSNYAQKFQGRVTITADESTSTAYMELSSLRSEDTAVYYCARGPLEGKVSPFDIWGQGTMVTVSS
VL: DIVMTQSPLSLPVTPGEPASISCRSSQSLLHSTGYNYLDWYLQKPGQSPQLLIYVGSTRASGVPDRFSGSGSGTDFTLKISRVEAEDVGVYYCMQERQFPITFGGGTKVEIKR
